# Results from PubChem BioAssay AID2685 (National Center for Advancing Translational Sciences (NCATS), 2010).
# The campaign covered roughly 320,000 compounds. About 2,100 (0.66%) were called active. This list was built around the results that the source calls inconclusive (neither active nor inactive); the mix of calls is not that of the screen. The call rests on the fitted dose curve; in most records, active means well fitted inhibition curve with a large enough effect in the signal ratio, with a control signal flat (not every such curve was filed as active); inconclusive means small, poorly fitted or top-dose-only effect, or effect the other way, or a change in a side signal; inactive means flat fitted curve, though single readings scatter; the % refers to the signal ratio. Where the call is inconclusive, the potency comes from a doubtful curve fit.
# Assay: qHTS Assay for Lipid Storage Modulators in Drosophila S3 Cells
# Conditions: BODIPY lipid droplet fluorescence, 18-24 h, cells fed with added oleic acid; lipid storage change, negative = inhibition: at 46.1 µM (top of the series) unless noted
# Method in brief: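 Drosophila S3 cells got compounds at several concentrations plus oleic acid (400 uM solution). Laser-scanning cytometry with 488 nm excitation read lipid droplets at 500-530 nm and cells at 575-640 nm. Percent activity was relative to 20 uM Triacsin C.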
# On the % scale 0 is the no-effect control and ±100 the full control effect; potency means the concentration at half of the fitted maximal effect.
Structure (SMILES),"lipid storage change, negative = inhibition",Potency
C/C(=N\OCC(=O)N/N=C/c1ccccc1)c1cccs1,inconclusive: 66.7%,
O=C(Cn1c(C(F)(F)F)nc2ccccc21)c1ccccc1,inconclusive: -68.7%,
CCN(CC)C(=O)CSc1nc2c(sc(=S)n2-c2ccccc2)c(=O)n1-c1ccccc1OC,inconclusive: 103%,
COc1ccc(CNc2oc(-c3cccc4ccccc34)nc2C#N)cc1,inactive,
O=c1cc(N2CCOCC2)[nH]c(=O)n1-c1ccc(Cl)cc1,,"inconclusive: 13 µM [activator, partial curve]"
O=C(OCc1nc2ccccc2s1)c1cnccn1,,"inconclusive: 20.6 µM [activator, single point]"
O=C(Nc1ccnn1C1CCN(CC(O)CO)CC1)C1CCCC1 (stereo unspecified),inconclusive: -15.3%,
CC(C)(C)C1CCc2c(sc(NC(=O)CSc3ncn[nH]3)c2C#N)C1 (stereo unspecified),,"inconclusive: 29.1 µM [cytotoxic, single point]"
Cc1ccc2nc(SCC(=O)NCc3ccc(F)cc3)[nH]c2c1,inconclusive: 27.7%,
O=C(NC1CC2CCCC(C1)N2Cc1ccco1)NC12CC3CC(CC(C3)C1)C2 (stereo unspecified),inconclusive: -51.2%,
Cc1cc(C)cc(-n2ncc3c2CCCC3NC(=O)CN2CCCC2=O)c1 (stereo unspecified),,"inconclusive: 29.1 µM [falling, single point]"
O=C(CCN1C(=O)[C@@H]2Cc3ccccc3CN2C1=O)N[C@H](C(=O)O)c1ccccc1,inactive,
Cc1nn(Cc2c(F)c(F)c(F)c(F)c2F)c(C)c1NC(=O)c1cccc(COc2ccc(Cl)cc2)c1,inconclusive: -6.52%,
CCOC(=O)NC(=O)COC(=O)CCCc1nc2ccccc2s1,inconclusive: -22.9%,
Cc1cc(C)cc(-n2c(C)cc(/C=C3\C(=N)N4N=C(CC(C)C)SC4=NC3=O)c2C)c1,inconclusive: -20.6%,
COc1ccc(Cl)cc1NC(=O)CN(C)CC(=O)N1CC(=O)Nc2ccccc21,,active: 1.3 µM
O=C(O)CCC(C(=O)O)n1c(O)c(C2=c3ccccc3=NC2=O)sc1=S (stereo unspecified),,"inconclusive: 0.92 µM [falling, full curve]"
CCNC(=S)NC1CC2CCCC(C1)N2Cc1ccc(C)cc1 (stereo unspecified),inconclusive: 7%,
O=C(NCCN1CCCC1)c1ccc(Cl)cc1,inconclusive: -1.61%,
O=C(CN(C(=O)c1csnn1)c1ccccc1F)NC1CCCCC1,,"inconclusive: 0.0046 µM [falling, full curve, poor fit]"
CCOC(=O)c1ccc(NC(=S)N2CCSC2c2ccc(OC)cc2)cc1 (stereo unspecified),,"inconclusive: 0.651 µM [falling, full curve]"
COC(=O)c1sccc1NC(=O)Cn1cnc2c1c(=O)n(C)c(=O)n2C,inconclusive: -22.4%,
COc1cc(-c2ccccc2)[nH]c(=S)n1,,"inconclusive: 29.1 µM [activator, single point]"
Cc1ccc2cc(/C=N/Nc3ccc(C(=O)O)cc3)c(Cl)nc2c1,,"inconclusive: 0.164 µM [rising, full curve]"
CCC(=O)Nc1nc2ccc3nc(C)sc3c2s1,,"inconclusive: 0.366 µM [rising, full curve]"
CCNC(=O)COC(=O)/C=C/c1cccc(F)c1,,"inconclusive: 6.51 µM [rising, single point]"

# Ordered by molecular weight (low to high): 19 of the compounds above
Structure (SMILES),"lipid storage change, negative = inhibition",Potency
CCNC(=O)COC(=O)/C=C/c1cccc(F)c1,,"inconclusive: 6.51 µM [rising, single point]"
O=C(OCc1nc2ccccc2s1)c1cnccn1,,"inconclusive: 20.6 µM [activator, single point]"
C/C(=N\OCC(=O)N/N=C/c1ccccc1)c1cccs1,inconclusive: 66.7%,
O=C(Cn1c(C(F)(F)F)nc2ccccc21)c1ccccc1,inconclusive: -68.7%,
O=c1cc(N2CCOCC2)[nH]c(=O)n1-c1ccc(Cl)cc1,,"inconclusive: 13 µM [activator, partial curve]"
Cc1ccc2nc(SCC(=O)NCc3ccc(F)cc3)[nH]c2c1,inconclusive: 27.7%,
CCNC(=S)NC1CC2CCCC(C1)N2Cc1ccc(C)cc1 (stereo unspecified),inconclusive: 7%,
Cc1ccc2cc(/C=N/Nc3ccc(C(=O)O)cc3)c(Cl)nc2c1,,"inconclusive: 0.164 µM [rising, full curve]"
CCOC(=O)NC(=O)COC(=O)CCCc1nc2ccccc2s1,inconclusive: -22.9%,
COc1ccc(CNc2oc(-c3cccc4ccccc34)nc2C#N)cc1,inactive,
Cc1cc(C)cc(-n2ncc3c2CCCC3NC(=O)CN2CCCC2=O)c1 (stereo unspecified),,"inconclusive: 29.1 µM [falling, single point]"
COC(=O)c1sccc1NC(=O)Cn1cnc2c1c(=O)n(C)c(=O)n2C,inconclusive: -22.4%,
O=C(O)CCC(C(=O)O)n1c(O)c(C2=c3ccccc3=NC2=O)sc1=S (stereo unspecified),,"inconclusive: 0.92 µM [falling, full curve]"
O=C(NC1CC2CCCC(C1)N2Cc1ccco1)NC12CC3CC(CC(C3)C1)C2 (stereo unspecified),inconclusive: -51.2%,
CCOC(=O)c1ccc(NC(=S)N2CCSC2c2ccc(OC)cc2)cc1 (stereo unspecified),,"inconclusive: 0.651 µM [falling, full curve]"
O=C(CCN1C(=O)[C@@H]2Cc3ccccc3CN2C1=O)N[C@H](C(=O)O)c1ccccc1,inactive,
Cc1cc(C)cc(-n2c(C)cc(/C=C3\C(=N)N4N=C(CC(C)C)SC4=NC3=O)c2C)c1,inconclusive: -20.6%,
CCN(CC)C(=O)CSc1nc2c(sc(=S)n2-c2ccccc2)c(=O)n1-c1ccccc1OC,inconclusive: 103%,
Cc1nn(Cc2c(F)c(F)c(F)c(F)c2F)c(C)c1NC(=O)c1cccc(COc2ccc(Cl)cc2)c1,inconclusive: -6.52%,

# (further entries)

Structure (SMILES),"lipid storage change, negative = inhibition",Potency
Cc1nc2ccccc2c(=O)n1NC(=O)C1CC1C (stereo unspecified),inconclusive: 6.5%,
COc1cccc(CN2CC(C(=O)N(C)Cc3ccnc4ccccc34)CCC2=O)c1 (stereo unspecified),,"inconclusive: 0.164 µM [activator, full curve, poor fit]"
N=c1n(Cc2ccccc2)c2ccccc2n1CC(O)c1ccco1 (stereo unspecified),,"inconclusive: 4.11 µM [falling, partial curve, poor fit]"
CNC(=O)c1ccc(NC(=O)Nc2ccccc2)cc1,inconclusive: 11%,
Cc1nnc(Sc2cc(NCCO)c([N+](=O)[O-])c3nonc23)s1,inconclusive: -27.1%,
O=C1CC(=O)N(Cc2ccco2)C(=O)N1,,"inconclusive: 0.231 µM [falling, full curve]"
O=C(Cc1ccc(Cl)cc1)NNC(=O)C1CC=CCC1C(=O)O (stereo unspecified),,active: 18.4 µM
CCOCCCn1c(=S)[nH]c2cc(C(=O)NCCN(CC)CC)ccc2c1=O,inconclusive: 1.3%,
Cn1c(=O)c2c(nc(NCCCO)n2C/C=C/c2ccccc2)n(C)c1=O,,active: 9.2 µM
O=C(COC(=O)CNC(=O)c1ccccc1F)Nc1cccnc1Cl,inconclusive: -17.4%,
CN=C(Nc1ccc(C)c(C)c1)SC1CC(=O)N(c2ccc(OC)cc2)C1=O (stereo unspecified),inconclusive: 3.25%,
Cc1ccc(C(C2C(=O)CC(C)(C)CC2=O)C2C(=O)CC(C)(C)CC2=O)s1,inconclusive: -3.35%,
O=C(C1CCCCCC1)N1CC[C@@H](N2CCC(O)CC2)[C@H](O)C1,inconclusive: 42.7%,
O=C(N/N=C/c1ccccn1)c1cc(-c2ccccc2Cl)n[nH]1,inconclusive: -12.6%,
CCCCCCOc1ccc(C(CC(N)=O)C(=O)O)cc1 (stereo unspecified),inconclusive: -24.4%,
CN(CC(=O)Nc1ccccc1Br)C(=O)CCSc1ccc(F)cc1,inconclusive,
O=c1c(Sc2ccccc2)c(C(F)(F)F)[nH]n1-c1ccccc1,inconclusive: 7.18%,
COc1cccc(C(=O)Nc2ccc3nc(N4CCN(c5ncccn5)CC4)cc(C)c3c2)c1OC,,"inconclusive: 29.1 µM [rising, single point]"
CCOc1ccc(C(=O)NC(=S)Nc2ccccn2)cc1[N+](=O)[O-],inconclusive: -2.8%,
O=C(CCCn1c(=O)[nH]c2ccccc2c1=O)N1CCN(c2ccccn2)CC1,inconclusive: 16.9%,
Cc1nc(N)nc2c1CCCC2,inconclusive: -0.0101%,
CC1NC2(C(=O)N(Cc3ccccc3)c3ccccc32)C2C(=O)N(c3ccccc3)C(=O)C12 (stereo unspecified),inactive,
CC1CC(C)CN(C(=O)CN2C(=O)NC(C)(C)C2=O)C1 (stereo unspecified),,"inconclusive: 9.2 µM [rising, partial curve]"
O=C(Nc1nnc(SCC(=O)N2CCCCC2)s1)c1ccc(F)cc1F,,"inconclusive: 2.59 µM [activator, full curve]"
CCOc1ccc(/C=C/C(=O)c2cc(Br)ccc(=O)c2O)cc1,,"inconclusive: 20.6 µM [falling, single point]"
Cc1ccc(NC(=O)c2cc3c(s2)CCC3)cc1S(=O)(=O)N1CCOCC1,,"inconclusive: 2.91 µM [activator, partial curve]"

Structure (SMILES),"lipid storage change, negative = inhibition",Potency
NC(=O)COC(=O)c1ccccc1OCc1ccccc1Cl,inconclusive: 48.4%,
Cc1cc(C)cc(N(C(=O)c2csnn2)C(C(=O)NC2CCCCC2)c2ccccn2)c1 (stereo unspecified),inconclusive: 58.9%,
COc1ccc(C2C(C(=O)N3CCN(C)CC3)c3cc(OC)c(OC)cc3C(=O)N2C)cc1 (stereo unspecified),inconclusive: 46.7%,
O=[N+]([O-])c1ccccc1/C=C/C=N/n1c(-c2cc(-c3ccccc3)n[nH]2)n[nH]c1=S,,"inconclusive: 16.4 µM [cytotoxic, single point]"
COC(=O)c1ccccc1NC(=O)Cn1nc2n(C)c3ccccc3n2c(=O)c1=O,inconclusive: -17.6%,
Cc1ccc(Nc2cc(C)nc(N3CCOCC3)n2)c(C)c1,,"inconclusive: 5.8 µM [activator, partial curve]"
O=S(=O)(Nc1cccc(-c2ccc(N3CCOCC3)nn2)c1)c1cc(Cl)ccc1Cl,,"inconclusive: 14.6 µM [rising, partial curve, poor fit]"
CCn1cc(C(=O)N2CC(C)CC(C)C2)c(=O)c2cc(S(=O)(=O)N3CCCC3)ccc21 (stereo unspecified),inconclusive: 37.9%,
CCOC(=O)C1CCN(C(=O)CC2(CC(=O)O)CCCC2)CC1,inconclusive: 48.4%,
O=C(NCCc1ccc(F)cc1)N[C@@H](Cc1ccccc1)C(=O)O,inconclusive: -6.88%,
CCC(=O)Nc1ccccc1C(=O)N1CCOCC1,,"inconclusive: 2.59 µM [falling, full curve, poor fit]"
N#Cc1c(N)nc2c(c1N)CC(COc1ccccc1)O2 (stereo unspecified),inconclusive: -27.8%,
Cc1ncoc1C(=O)NCc1ccccc1Cl,inactive,
O=C1CC(c2cccs2)CC2=C1C(c1ccccc1)n1ncnc1N2 (stereo unspecified),,"inconclusive: 6.51 µM [falling, single point]"
CCC(C)[C@@H](C(=O)N1CCNCC1)n1cc(CCCN=C(N)N)nn1 (stereo partly specified),inactive,
COc1ccc(-c2cc(C3CCN(c4ccc(C(C)=O)cc4[N+](=O)[O-])CC3)[nH]n2)cc1,,"inconclusive: 20.6 µM [falling, single point]"
O=C(NC1CCCCC1)C(c1ccc(F)cc1)N(Cc1ccco1)C(=O)CN1C(=O)c2ccccc2S1(=O)=O (stereo unspecified),inactive,
Cc1cc(S(=O)(=O)NCc2ccc3c(c2)OCO3)ccc1F,inconclusive: -20.8%,
O=C(N1CCOCC1)N1CCN(S(=O)(=O)c2ccccc2)C1,,"inconclusive: 0.0651 µM [falling, full curve, poor fit]"
CC(C)Nc1ccc(C(CC(N)=O)NC(=O)Cc2cccc3ccccc23)cc1[N+](=O)[O-] (stereo unspecified),inactive,
CN1/C(=C\C(=O)COC(=O)CNC(=O)c2ccc3ccccc3c2)C(C)(C)c2ccccc21,,"inconclusive: 29.1 µM [falling, single point]"
Cc1nc([N+](=O)[O-])c(Sc2nc3ccccc3n2C)n1Cc1ccccc1,inconclusive: -7.33%,
O=C(COC(=O)c1ccc(O)cc1)Nc1ccc(N2CCCCC2)cc1,inconclusive: 4.09%,
Cc1c(NC(=O)C(C)OC(=O)COc2ccc(C#N)cc2)c(=O)n(-c2ccccc2)n1C (stereo unspecified),,"inconclusive: 2.31 µM [falling, full curve, poor fit]"
